In article PMC10748395 one finds binding data, which are given here for one molecule.

These are yes or no findings as the source states them, for the method shown. Some entries that bind do so weakly or less than the wild type. Where a sequence is shown, tags or fusion partners need not be part of it.

Holding throughout (assay): two-hybrid; Gal4 system, vectors pGBT9 and pGAD10 or pGAD424, yeast reporter strain Y187, beta-galactosidase filter assay
Assay [1] addresses T1, human GIPC3, yeast two-hybrid fusion (human) (UniProt Q8TF64).
T1 sequence: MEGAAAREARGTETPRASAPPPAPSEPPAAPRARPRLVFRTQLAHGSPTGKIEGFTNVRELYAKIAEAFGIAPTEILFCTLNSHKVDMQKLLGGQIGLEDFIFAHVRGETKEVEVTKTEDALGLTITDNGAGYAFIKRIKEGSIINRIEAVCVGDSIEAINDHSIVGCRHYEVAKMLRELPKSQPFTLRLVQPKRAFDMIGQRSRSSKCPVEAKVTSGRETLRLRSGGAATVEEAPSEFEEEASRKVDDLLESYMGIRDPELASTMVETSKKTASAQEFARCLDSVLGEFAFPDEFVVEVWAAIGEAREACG

The target of assay [2] is T2, human GIPC2, yeast two-hybrid fusion (human) (UniProt Q8TF65).
T2 sequence: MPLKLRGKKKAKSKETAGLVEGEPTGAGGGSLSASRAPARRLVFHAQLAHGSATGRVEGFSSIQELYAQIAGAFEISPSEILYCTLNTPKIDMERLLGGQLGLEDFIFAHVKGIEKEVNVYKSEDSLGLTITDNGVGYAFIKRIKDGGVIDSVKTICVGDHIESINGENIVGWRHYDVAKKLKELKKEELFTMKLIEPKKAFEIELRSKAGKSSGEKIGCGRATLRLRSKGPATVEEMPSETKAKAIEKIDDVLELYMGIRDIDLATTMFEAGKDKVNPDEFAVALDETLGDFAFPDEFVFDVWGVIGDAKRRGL

The target in assay [3] is T3, GIPC1 (GAIP C-Terminus-Interacting Protein PDZ Domain Containing Family, Member 1), full-length, yeast two-hybrid fusion (UniProt O14908).
T3 sequence: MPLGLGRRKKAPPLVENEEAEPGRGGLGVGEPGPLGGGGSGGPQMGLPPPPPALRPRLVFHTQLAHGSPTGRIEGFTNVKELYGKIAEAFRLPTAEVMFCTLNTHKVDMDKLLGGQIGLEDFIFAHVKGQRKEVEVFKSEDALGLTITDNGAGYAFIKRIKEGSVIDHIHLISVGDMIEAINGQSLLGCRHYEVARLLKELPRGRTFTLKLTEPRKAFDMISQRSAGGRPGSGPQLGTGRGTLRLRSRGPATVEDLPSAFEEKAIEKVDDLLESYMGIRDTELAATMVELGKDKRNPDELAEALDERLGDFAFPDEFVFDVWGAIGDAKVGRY

B1: SH3BP4 (SH3-domain binding protein 4), yeast two-hybrid fusion (protein, UniProt Q9JJS5 1-961)
chain: MAAQRIRAANSSGLPRCKSEGTLIDLSEGFSETSFNDVKVPSPSALLVDNPTPFGNAKEVIAIKDYCPNNFTTLKFSKGDHLYVLDTSGGEWWYAHNTTEMGYIPSSYVQPLNYRNSTLSDSGMIDNLPDSPDEVAKELDLLGGWTDDQKQSGRPYSNNPFWNGVRTNPFLNGNAQPSMDELNPKSTVDLLLFDTGTSSFTESSSATTNSTGNIFDELPATNGIHLEQPVKRDNPFFRSKRSYSLSELSVLQAKSDAPPTSSFFTGLKSPAPEQFQSREDFRTAWLNHRKLARSCHDLDLLGQSPGWGQTQAVETNIVCKLDSSGGSVQLPDTSISIHVPEGHVAPGETQQISMKALLDPPLDLNSDRSTSISPVVEVKLSNLEVSTFIILEMKVSAEVKGDIFSKSTVVLQCLRSDSKEGPYAPIPLAYSYGDTIQVQLDNLEPCMYLAIVAQGSNILYPSTVWDFIHKRVTVGLYGPKHIHPSFKTVVTIFGHDCAPKTLLVTEVTRQAPSPAPVALQLWGKHQFILSRPQDLRVCMFSNMTNYDVKSNEQAKVVRGFQMKLGKVSRLIFSVISQNPNELSDFTLRVQVKDDQDTILTQFCVQTPQPPPKSAIKPSGQRRFLKKNEVGKIILSPFVVTTKYPTFQDRPVSSLKFGKLLKTVVRQNKSHYLLEYKKGDVVALLSEERIRLKGQLWTKEWYIGYYQGKVGLVHTKNVLVVGKARPSLFSGPELSTSVLLEQILRPCKFLTYIYASVRTLLMENISSWRAFADALGYGNLPLTFFCRAELDSEPERVASVLEKLKEDCNNPDNKDRKSFQKELVMALLKMDCQGLVVRLIQDFVLLTTAVEVAQRWRELAEKLAKVSKQQMDAYESPHRDRNGVVDSEAMWKPAYDFLLTWSHQIGDSYRDVIQELHIGLDKMKNPITRRWKHLTGTLILVNSLDILRAAAFSPADHDDFVI
In the case of B1, the results for the binding entry in assay [1], in assay [2] and in assay [3] were “no binding”, “no binding” and “binds”, respectively.
